Test results reported in patent US5659024.
For some assays here: A weaker result is weaker than the reference pair of the same experiment. For some assays here: Results from cells or extracts need not show a direct contact. For at least one entry, the source does not settle the construct or the ends of the probe.

Key:
p53 wild-type [1] = target: p53 wild-type (UniProt P04637); experiment: activity in cells; details: protein in cells, protein details: pCMV-p53wt
p53 wild-type [2] = target: p53 wild-type (UniProt P04637); experiment: EMSA; details: label: 32P
[3] = CAT activation in H358, variant of bax p53-RE-U (-485 to -449), only the site is given

AGACAAGCCTGGGCGTGGGCTATATT (double strand) [bax promotor -474 to -449]
activity on this sequence (p53 wild-type [1]; [3]): less active

GTAGACTGATATTAACAATACTTACTAATAATAACGTGCCTCATGAAATAAAGATCCGAAAGGAATTGGAATAAAAATTTCCTGCGTCTCATGCCAAGAGGGAAACACCAGAATCAAGTGTTCCGCGTGATTGAAGACACCCCCTCGTCCAAGAATGCAAAGCACATCCAATAAAATAGCTGGATTATAA (double strand) [bcl-2 p53-RE-D (-273 to -84)]
binding result (p53 wild-type [2]; poly dI-dC, room temperature, supershifted by anti-p53 antibody, protein in a lysate after overexpression): binds | activity on this sequence (p53 wild-type [1]; CAT repression in H358 cells, SV40 promotor): active

GGGAATTCCAGACTGCAGTGAGCCATGATTGGGCCACTGCACTCCAGCCTGGGCAACACAGTGAGACCCTGTCTCAAAAAAAAAAAAAAAAAAAAAAAAAAAAACAGGAAAAAACAAACAAACAGAAAAGCAGGCCTGGCGCGGTAGCTCATGCCTGTAATCCCAGCGCTTTGGAAGGCTGAGACGGGGTTATCTCTTGGGCTCACAAGTTAGAGACAAGCCTGGGCGTGGGCTATATTGCTAGATCCAGGTCTCTGCAAAAAACAAAACCACTCAGTTTTTAGTCATCTATAACGTCCTGCCTGGAAGCATGCTATTTTGGGCCTCTGAGCTTTTGCACTTGCTAATTCCTTCTGCGCTGGGGAGAGCT (double strand) [bax promotor -687 to -318]
activity on this sequence (p53 wild-type [1]; CAT activation in H358, about 30 fold in Saos-2): active

TCACAAGTTAGAGACAAGCCT (double strand) [bax promotor -485 to -465]
activity on this sequence (p53 wild-type [1]; [3]): less active

TGAGACGGGGTTATCTCTTGGGCTCACAAGTTAGAGACAAGCCTGGGCGTGGGCTATATTGCTAGATCCAGGTCTCTGCAAAAAACAAAACCAC (double strand) [bax promotor -508 to -415]
activity on this sequence (p53 wild-type [1]; CAT activation in H358): active

TCACAAGTTAGAGACAAGCCTGGGCGTGGGCTATATT (double strand) [bax p53-RE-U (-485 to -449)]
binding result (p53 wild-type [2]; complex seen only with anti-p53 antibodies DO-1 and P421, salmon sperm DNA, 25 C, protein translated in vitro, protein details: reticulocyte lysate, from pCMV-p53wt): binds | activity on this sequence (p53 wild-type [1]; CAT activation in H358, only the site is given): active
